Results reported in patent US20160137714A1 (Thrasos Innovation, Inc., priority 2014, published 2016).
The same purity stands for every peptide and may come from a single statement. Some peptides are written in HELM: one residue between dots, names in brackets for other building blocks, links after the first $. No end group written: not given here.

Test: general procedure: Fmoc solid-phase peptide synthesis; Wang resin
Settings: whole synthesis, TFA salt

Final HPLC purity, >95%:
PEPTIDE1{C.Y.F.D.D.S.S.N.V.L.C.K.K.Y}$PEPTIDE1,PEPTIDE1,1:R3-11:R3$$$V2.0
PEPTIDE1{C.Y.F.D.D.S.S.N.V.L.C}$PEPTIDE1,PEPTIDE1,1:R3-11:R3$$$V2.0

Same assay, conditions: whole synthesis, TFA salt, one disulfide bridge, sequence written open

Final HPLC purity, >95%:
CYFDDSSNVLCKK (cysteine pairing not given here)
CYFDDSSNVLCK (cysteine pairing not given here)

Test: general procedure: Fmoc solid-phase peptide synthesis; Fmoc-Ser(tBu)-Wang
Settings: whole synthesis, TFA salt

Final HPLC purity, >95%:
PEPTIDE1{C.Y.F.D.D.S.S.N.V.L.C.K.K.Y.[dR].S}$PEPTIDE1,PEPTIDE1,1:R3-11:R3$$$V2.0
PEPTIDE1{C.Y.Y.D.N.S.S.S.V.L.C.K.R.Y.R.S}$PEPTIDE1,PEPTIDE1,1:R3-11:R3$$$V2.0
PEPTIDE1{C.Y.Y.F.N.S.S.Q.V.L.C.K.R.[dY].R.S}$PEPTIDE1,PEPTIDE1,1:R3-11:R3$$$V2.0
PEPTIDE1{C.Y.Y.D.D.S.S.S.V.L.C.K.K.[dY].R.S}$PEPTIDE1,PEPTIDE1,1:R3-11:R3$$$V2.0
PEPTIDE1{C.Y.Y.D.N.S.S.S.V.L.C.K.K.[dY].R.S}$PEPTIDE1,PEPTIDE1,1:R3-11:R3$$$V2.0
PEPTIDE1{C.Y.Y.D.D.S.S.S.V.L.C.K.K.Y.R.S}$PEPTIDE1,PEPTIDE1,1:R3-11:R3$$$V2.0
PEPTIDE1{C.Y.Y.D.N.S.S.S.V.L.C.K.R.[dY].R.S}$PEPTIDE1,PEPTIDE1,1:R3-11:R3$$$V2.0
PEPTIDE1{C.Y.F.D.D.S.S.N.V.L.C.K.R.Y.R.S}$PEPTIDE1,PEPTIDE1,1:R3-11:R3$$$V2.0
PEPTIDE1{C.Y.Y.D.N.S.S.S.V.L.C.K.K.Y.R.S}$PEPTIDE1,PEPTIDE1,1:R3-11:R3$$$V2.0
PEPTIDE1{C.Y.F.D.D.S.S.N.V.L.C.K.R.[dY].R.S}$PEPTIDE1,PEPTIDE1,1:R3-11:R3$$$V2.0
PEPTIDE1{C.Y.F.D.D.S.S.N.V.L.C.K.[dK].Y.R.S}$PEPTIDE1,PEPTIDE1,1:R3-11:R3$$$V2.0
